PubChem BioAssay AID540256 (National Center for Advancing Translational Sciences (NCATS), 2011)
In all, about 300,000 compounds went through this assay and about 3,700 (1.2%) were called active. Inconclusive results, whose numbers are uncertain, are shown with a selection of clear calls. The call rests on the fitted dose curve; tested in HEK293 cells. Where the call is inconclusive, the potency comes from a doubtful curve fit. Where a SMILES comes first, the peptide text is derived from it. The star is where a group is joined. Boc = CC(C)(C)OC(=O)*; OBn = c1ccc(CO*)cc1
On the % scale 0 is the no-effect control and ±100 the full control effect; potency means the concentration at half of the fitted maximal effect.

Assay: qHTS for Inhibitors of binding or entry into cells for Lassa Virus; further: nearly all actives have a fitted effect of over 50% in size
Details: Lassa virus pseudotype entry inhibition, cell reporter; activity change, negative = inhibition: at 37.9 µM (top of the series) unless noted
For `CC(C(=O)NCC1CCCCC1)N1CCN(S(=O)(=O)/C=C/c2ccccc2)CC1` (stereo not given), the Potency was inconclusive: 5.62 µM [inhibitor, single point].
With `Cc1ccc(C(=O)OCCn2cc(C#N)c(=O)[nH]c2=O)cc1` the Potency was inconclusive: 8.91 µM [activator, full curve, poor fit].
For `CCC(C)(C)n1nnnc1C(c1ccc(C)cc1)N1CCC(C)CC1` (stereo not given), the “activity change, negative = inhibition” value was inactive: 2.61%.
In the case of `C=CCNc1ncnc2c1cnn2-c1ccc(OC)cc1`, the Potency is reported as inconclusive: 20.6 µM [inhibitor, single point].
With `Cc1ccccc1C(=O)N1CCN(c2ccc(NC(=O)c3cccnc3)cc2)CC1` the Potency was inconclusive: 35.5 µM [inhibitor, single point].
In the case of `CCOc1ccc(NS(=O)(=O)c2ccc(C(=O)N(CC)CC(=O)NCc3cccs3)cc2)cc1`, the Potency is reported as inconclusive: 5.62 µM [inhibitor, partial curve, poor fit].
With `Cc1[nH]n(-c2cccc(Cl)c2)c(=O)c1C=NC12CN3CN(CN(C3)C1)C2` the “activity change, negative = inhibition” value was inactive: 16.8%.
In the case of `CC1(C)C(=O)Nc2ccccc2N1C(=O)COC(=O)c1ccc(Cl)c(S(=O)(=O)NCc2ccccc2)c1`, the Potency is reported as inconclusive: 17.8 µM [inhibitor, partial curve, poor fit].
In the case of `O=C(Nc1c(Cl)cc(Cl)cc1C(=O)NCC1CCCO1)c1ccco1` (stereo not given), the Potency is reported as inconclusive: 0.562 µM [activator, full curve, poor fit].
In the case of `O=S(=O)(O)c1nc2ccccc2n1Cc1ccccc1`, the “activity change, negative = inhibition” value is reported as inactive: 18.2%.
In the case of `CCOC(=O)c1nnc(-c2cccs2)nc1Oc1ccccc1C(=O)OC`, the “activity change, negative = inhibition” value is reported as inactive: 12.9%.
With `CCn1cc(S(=O)(=O)c2ccccc2)c(=O)c2cc(F)c(N3CCCCCC3)cc21` the “activity change, negative = inhibition” value was inactive: -18.5% [at 46.1 µM].
For `CCOCCCn1c(=N)c(S(=O)(=O)c2ccccc2)cc2c(=O)n3cc(C)ccc3nc21`, the activity change, negative = inhibition was inconclusive: 2.07% [activator] [at 46.1 µM].
For `c1ccc2c(c1)oc1c(NCC3CCCO3)ncnc12` (stereo not given), the “activity change, negative = inhibition” value was inactive: 3.79%.
In the case of `CC(=O)c1cccc(NC(=O)c2ccc3c(c2)CCN3S(=O)(=O)c2ccccc2)c1`, the Potency is reported as inconclusive: 15.8 µM [inhibitor, single point].
For `Cc1ccccc1C(=O)NNC(=S)NC(=O)c1ccccc1`, the Potency was inconclusive: 35.5 µM [inhibitor, single point].
With `Cc1ccc(Nc2c(-c3cccnc3)nc3ccc(C)cn23)cc1` the Potency was inconclusive: 3.55 µM [inhibitor, partial curve, poor fit].
With `CC1(C)NC(=O)N(CC(=O)OCC(=O)Nc2cccc(F)c2)C1=O` the Potency was inconclusive: 35.5 µM [activator, single point].
For `O=C(/C=C/c1ccccc1F)N1CCN(c2ccccn2)CC1`, the “activity change, negative = inhibition” value was inactive: 19.2% [at 46.1 µM].
For `COc1ccc(N2CCN(C(=O)c3ccc(OCc4c(C)noc4C)c(OC)c3)CC2)cc1`, the “activity change, negative = inhibition” value was inactive: -7.08%.
In the case of `COc1cccc(C2=CC(c3ccccc3F)n3ncc(C(=O)Nc4ccc(F)cc4)c3N2)c1` (stereo not given), the Potency is reported as inconclusive: 2.24 µM [inhibitor, full curve].
For `NC(=O)c1ccc(N=Cc2ccc([N+](=O)[O-])s2)cc1`, the Potency was inconclusive: 35.5 µM [inhibitor, single point].
For `COC(=O)[C@H]1[C@H]2C[C@@H]3c4[nH]c5cc(OC)ccc5c4CCN3C[C@H]2C[C@@H](OC(=O)c2cc(OC)c(OC)c(OC)c2)[C@@H]1OC`, the Potency was active: 7.3 µM.
For `CN(C(=O)COC(=O)CCc1c[nH]c2ccccc12)C(c1ccccc1)c1ccccc1`, the Potency was inconclusive: 35.5 µM [inhibitor, single point].
For `Cc1nn(Cc2ccc(C(=O)NC3CCCCC3)o2)c(C)c1Br`, the Potency was inconclusive: 29.1 µM [inhibitor, single point].
With `COc1ccc(OC)c(N(C(=O)c2snc(C(N)=O)c2N)C(C(=O)NCc2ccccc2)c2ccc(O)cc2)c1` (stereo not given) the Potency was inconclusive: 4.47 µM [inhibitor, partial curve, poor fit].
For `Cc1c(C=Nc2ccc(S(=O)(=O)N(C)C)cc2)c(O)[nH]c(=O)c1C#N`, the “activity change, negative = inhibition” value was inactive: 9.14%.
In the case of `CCOCCCNC(=O)C(c1ccc(C)cc1)N(Cc1ccc2c(c1)OCO2)C(=O)c1ccccc1O` (stereo not given), the “activity change, negative = inhibition” value is reported as inactive: -25.2% [at 46.1 µM].
In the case of `COc1cc(SC)ccc1C(=O)Nc1ccccn1`, the Potency is reported as inconclusive: 7.94 µM [inhibitor, partial curve, poor fit].
With `O=C(CSc1nnc2scc(-c3ccc(Cl)cc3)n12)Nc1ccc(F)cc1` the “activity change, negative = inhibition” value was inactive: 20.4% [at 46.1 µM].
With `c1ccc(CN2CCC(=NNc3nc4ccccc4[nH]3)CC2)cc1` the Potency was inconclusive: 12.6 µM [inhibitor, partial curve].
With `COC(=O)Cc1c[nH]c2cccc(OCC(O)CN(Cc3ccc([N+](=O)[O-])cc3)C(C)(C)C)c12` (stereo not given) the Potency was inconclusive: 2.31 µM [inhibitor, full curve, poor fit].
For `COc1cc(C2Nc3ccc4ncccc4c3C3=C2C(=O)CCC3)ccc1O` (stereo not given), the Potency was inconclusive: 8.2 µM [inhibitor, partial curve, poor fit].
For `O=C(CN(C1CCCCC1)C1CCCCC1)N1CCc2ccccc2C1`, the Potency was inconclusive: 22.4 µM [inhibitor, single point].
With `CCn1c(CCNC(=O)c2ccc(OC)cc2)nnc1SCc1ccc(Cl)c(Cl)c1` the Potency was inconclusive: 15.8 µM [inhibitor, single point].
In the case of `CCC(=O)c1ccc(OCc2ccccc2)c(OC)c1`, the Potency is reported as inconclusive: 1.58 µM [activator, partial curve, poor fit].
For `COCCN1C(=O)N(c2cccc(OC)c2)C(=O)C1CC(=O)Nc1ccc(OC)cc1` (stereo not given), the Potency was inconclusive: 35.5 µM [inhibitor, single point].
For `OC(COCCOc1ccc(Br)cc1)CN1CCN(Cc2ccccc2)CC1` (stereo not given), the Potency was inconclusive: 29.1 µM [inhibitor, single point].
For `COc1cccc(N2CCN(C(=O)Cn3c(=O)oc4ccccc43)CC2)c1`, the Potency was inconclusive: 1.12 µM [inhibitor, partial curve, poor fit].
With `CC(=O)c1c(C)nn(-c2ccccc2)c1C` the “activity change, negative = inhibition” value was inactive: 8.9%.
With `Cc1ccc(NC(=O)CCn2cccn2)c(C)c1` the “activity change, negative = inhibition” value was inactive: -0.324% [at 46.1 µM].
With `COc1ccc(N2CCN(C(=O)Cn3cnc4sc(C)c(S(=O)(=O)N5CCCCC5)c4c3=O)CC2)cc1` the Potency was inconclusive: 1.26 µM [activator, full curve, poor fit].
For `Cc1ccc(Cn2c(=O)n(CCc3ccccc3)c(=O)c3sc4ccccc4c32)cc1`, the Potency was inconclusive: 10 µM [activator, partial curve, poor fit].
With `O=c1[nH]c(O)c(C=Nc2ccccc2Sc2ccccc2)c(=O)[nH]1` the Potency was inconclusive: 17.8 µM [inhibitor, partial curve, poor fit].
In the case of `O=C(O)c1cccc(N/N=C/c2ccc(-c3ccccc3)cc2)c1`, the Potency is reported as active: 8.91 µM.
With `Cn1c2ccccc2c(=O)c2c(=O)n(Cc3ccco3)c(COc3ccccc3)nc21` the Potency was inconclusive: 4.47 µM [inhibitor, full curve, poor fit].
With `COc1ccc(NC(=O)CCc2c(C)nn(-c3ccc(N4CCCC4)nn3)c2C)cc1Cl` the Potency was inconclusive: 5.62 µM [activator, partial curve, poor fit].
In the case of `COC(=O)c1cc(-c2ccc(Cl)cc2)c2c(=O)[nH]c(=O)n(C)c2n1`, the “activity change, negative = inhibition” value is reported as inactive: -3.91% [at 46.1 µM].
In the case of `Cc1ccc(NC(=O)N2CCc3ccccc32)cc1`, the Potency is reported as inconclusive: 9.2 µM [inhibitor, single point].
For `CCOC(=O)c1cc2sc(C)cc2n1CC(=O)NCCc1ccccc1`, the Potency was inconclusive: 4.11 µM [inhibitor, partial curve, poor fit].
With `CCc1nnc(NC(=O)CCC(=O)N2CCN(c3cc(Cl)ccc3C)CC2)s1` the “activity change, negative = inhibition” value was inactive: -8.22% [at 46.1 µM].
For `COc1cc2c(cc1NC(=O)c1ccc(C(C)(C)C)cc1)CCCC2`, the Potency was active: 1.41 µM.
In the case of `CCC1(C)Cc2c(sc3nnn(CC(=O)Nc4cccc5ccccc45)c(=O)c23)CO1` (stereo not given), the Potency is reported as inconclusive: 6.51 µM [inhibitor, full curve].
For `Nc1nccc(SCc2ccc(Cl)cc2Cl)n1`, the Potency was inconclusive: 7.94 µM [inhibitor, single point].
With `CN1CCN(C2=Cc3ccccc3Sc3cc(F)c(Cl)cc32)CC1` the “activity change, negative = inhibition” value was inactive: -2.18%.
For `CC(C)CCNC(=O)COc1cccc2c1OC(C)(C)C2`, the Potency was inconclusive: 11.2 µM [inhibitor, partial curve, poor fit].
For `Oc1ccc(Br)cc1C1Nc2ccccc2S1` (stereo not given), the Potency was inconclusive: 0.562 µM [activator, single point].
With `CC(C)CC(NC(=O)C(NC(=O)OC(C)(C)C)C(C)C)C(=O)NC(CCC(=O)OCc1ccccc1)C(N)=O` (stereo not drawn) (Boc-Val-Leu-Glu(OBn)-NH2; configuration not given here) the Potency was inconclusive: 5.8 µM [inhibitor, partial curve].
In the case of `CC1CCN(S(=O)(=O)c2ccc(C(=O)NNC(=O)C3CC3)cc2)CC1`, the Potency is reported as inconclusive: 1.78 µM [inhibitor, full curve].
In the case of `Nc1ccc(O)c2c1C(=O)c1ccccc1C2=O`, the “activity change, negative = inhibition” value is reported as inactive: 8.32%.
In the case of `Cc1ccc(/C=C2/CNC/C(=C/c3ccc(C)cc3)C2=O)cc1`, the Potency is reported as inconclusive: 20 µM [inhibitor, single point].
For `Cc1ccc(Cl)cc1NC(=O)c1cnn2c1NC(c1ccco1)CC2C(F)(F)F` (stereo not given), the Potency was inconclusive: 20.6 µM [inhibitor, single point].
For `COC(=O)c1sccc1NC(=O)Cc1ccc(OC)c(OC)c1`, the Potency was inconclusive: 18.4 µM [inhibitor, single point].
With `O=C(CSc1nc2c([nH]c3ccccc32)c(=O)n1-c1ccccc1)Nc1cccc(C(F)(F)F)c1` the Potency was inconclusive: 12.6 µM [inhibitor, partial curve].
With `CN(C(=O)c1ccccc1C(=O)OCC(=O)c1ccc(F)c(F)c1)C1CCCCC1` the Potency was inconclusive: 20 µM [inhibitor, single point].
